Data: PubChem BioAssay AID1347423 (Functional Genomics Laboratory (NCATS/FGL), 2020)
Among all 52,000 sequences or so, about 210 (0.4%) were called active.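 How the source made its calls: active means gene whose silencing raises cell survival under the drug, median off-target-corrected z-score across its silencing RNAs 2 or more; inactive means the rest.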 The list shows a part of the results.

Assay: Resistance to Poly (ADP-Ribose) Polymerase inhibitor: Gene Identification via Genome-wide siRNA Screen
Settings: mouse BRCA2 R2336H ES cells, olaparib, CellTiter-Glo viability; stronger effect = higher value
In short: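 Mouse BRCA2 R2336H ES cells were reverse-transfected with siRNA (20 nM final), treated at 48 h with 500 nM olaparib, and read by CellTiter-Glo after 72 h. Scores: MAD-based z per siRNA, median per gene, seed off-target correction.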

Sequence | z-score
GGGCAUGUUUAACGACAUUTT against Csf2ra | inactive: -0.288
GCCCAUUAUGGUUAAAGAATT against Ccnb3 | inactive: 0.642
GCUCUCACCAUCAGAGAAATT against Trpc4 | inactive: 0.69
GAAUGUCUGAGCAAGGAGGTT against 0710001E13Rik | inactive: 0.119
GCACUUUCACUGACCUAGATT against Gtf2e1 | inactive: -1.14
GCACCACUCUUUGUAAUAUTT against Olfr1046 | inactive: -1.99
GGAUGCAUUUUUUCUGGAATT against Gltscr2 | inactive: -1.52
GGAAUUUGUCUCCUGGCCUTT against Olfr1120 | inactive: 0.636
GGCUAUGAAAAGAAGCCCUTT against 1200007O21Rik | inactive: 1.09
GGUCAUUCAGAUUCUCGGATT against Itpa | inactive: -0.832
GCUACUCCUUAAUUGGCAATT against C530024P05Rik | inactive: -0.899
CGUAGCUGCCGUCAACUCUTT against Slc2a5 | inactive: -0.0254
CCUAUAUUCCAUGGAUUCUTT against 2310031L18Rik | inactive: 0.266
GGCAAAACUGACGUAAACUTT against Gpx4 | inactive: 0.382
CCAAAGCUGAAGAUUUUGGTT against Man1b1 | inactive: -0.609
GCUCUGAUCAUUUGACUUGTT against Ovca2 | inactive: 0.309
GCAGUUCAACACUCAACUUTT against Grpr | inactive: 0.451
GCACCUCUGACAAGGUUCUTT against Plin | inactive: 0.114
GGGACUGAACUCCUGUUGGTT against Ocsp | inactive: 1.5
GGUGCCACAGUUUACAUUATT against Dhrs1 | inactive: 2.8
GGACCGAUUCCACUUCAAUTT against Crygd | inactive: -0.753
GGGUUACCAACGACAGUGGTT against Cldn11 | inactive: 1.05
GGUACUUGGUUUGAGUGGATT against Serpinb8 | inactive: -0.385
CCAGUUCGAAGACCGUAUUTT against Tceal1 | inactive: -0.558
CGAAUGUCUCACUCAUUGCTT against D15Ertd405e | inactive: -0.604
GGGACAAAGUACCUCUCCATT against MGC59495 | inactive: -0.638

Sequence | z-score
GGAUGUGUCUCACUUCUUGTT against Th | inactive: 0.27
CGAGCUGAACAGAAUGAUATT against Krt2-18 | inactive: -0.00799
GGAAAUUGUCAGGUCCUACTT against Rad50 | inactive: -0.397
GCAUAAAAUUGUGUUUCGUTT against Slc39a6 | inactive: 0.398
GGAUUCUGAAGUGUAAAGATT against Icos | inactive: -0.0317
GGAGAAAAUUUUGUCACUGTT against Olfr437 | inactive: 0.241
GCUCUUUUUACUAUGUCAATT against Col4a3 | inactive: -0.162
GGAGCAUGGUGUGUUGUGATT against 9830005G06Rik | inactive: -0.907
GGAGAAUGAAGAAGAUAAUTT against Taf5l | inactive: -0.129
GCCAUCAACAGCAUUUACATT against Glt8d2 | inactive: -0.324
GGUCAAAUAUAUGCUUGGGTT against Chc1l | inactive: -0.461
GGCUUUUAGAUUUGUUUCATT against Hspa9a | inactive: -1.41
GGCUUGGGUGCAACUGAAATT against Mrps26 | inactive: -2.93
GGAAUAUUGUGGCCUUAUATT against Bnip3 | inactive: -1.03
GGGAUAACACUCCUGUUUUTT against F630111L10Rik | inactive: 1.17
GGAACGAGACCUGAAAAUUTT against Myh11 | inactive: 0.52
GGAGUAUUUUCCUCUCUGUTT against D930047P17Rik | inactive: -1.95
GCGGUGUUUAAGCAUUGAUTT against Obrgrp | inactive: -2.28
GGAAAAAUACUCCAUAUUCTT against Enam | inactive: 0.53
CGAUUGCUACGGAUAUUAUTT against Cdkal1 | inactive: -1.38
GGUUGGUGACACAGUGCAATT against Tcl1b2 | inactive: 0.407
GCAAUACGGAGUCUAGCCCTT against C630028N24Rik | inactive: 0.0163
GGUUGUGCACAGCAGUGUUTT against 2300002G24Rik | inactive: -0.779
GGGAAACAGUGAAAAGUUCTT against BC038925 | inactive: -0.713
GGUGAUCUUAGAUUUGAUUTT against Qscn6l1 | inactive: 2.59
CGUGUGUGAUUAAGUCUUATT against Bhlhb4 | inactive: -0.909

Sequence | z-score
GGCGUAGAUGAGUUGGAAATT against 3930402F23Rik | inactive: -0.642
CGGCAAUACCAUCAACAAGTT against Chrne | inactive: -0.0891
GGCAUCUCCUCGAAUUUAUTT against Theg | inactive: -0.712
GCAGAAAUACUGGCGAAUATT against 4631402N15Rik | inactive: 0.00908
CCCGAAUGCAAUCCUUUGGTT against Phgdh | inactive: -1.79
GGACAGUUCUCUCUGCACUTT against Tsp50 | inactive: -0.4
CGUGCCAAUUGAAAAAAACTT against Park2 | inactive: -0.16
GGAACUAACACAUGAGUCUTT against D630004N19Rik | inactive: 0.371
CCAAUCCUGGAAUUGCCGATT against Gnb1l | inactive: -1.2
GCACUGAAAGAAUUCGACUTT against Strn3 | inactive: 1.43
GCCCAAUGAUUUCUCUUGUTT against Serpinb3d | inactive: -1.05
GGUCUUUGAUGUUUUCACCTT against 4632412N22Rik | inactive: -0.391
GGAGGAGGUUCUUCAGUACTT against Aplp2 | inactive: -0.568
GGCCAAGGAAGAGAUCAUGTT against Ap4s1 | inactive: -0.72
GGCCACCAUGAAAGACGACTT against Eif3s1 | inactive: 0.654
CCCUGUACGUUGUCUAUAATT against Olfml3 | inactive: 0.0378
GGCCCAUUGAUCUGUGAUATT against Klk8 | inactive: -0.338
GGGACCGUGCUCUUUAACCTT against Nr0b1 | inactive: -0.128
GGAUCGAAGCAGAACUGCATT against Hipk3 | inactive: -1.57
GGAUGUUGAGGAGUUUUUUTT against Trp53 | inactive: 4.48
GCUUCAGGACGACUUCUACTT against Fzr1 | inactive: -0.915
GGAGGGUCUUGGAUAUGUGTT against Olfr1337 | inactive: 0.287
GCCUGUAUAGAUGCUAUUCTT against BC010250 | inactive: -2.81
GCCAUUGACUGUACAGGUUTT against Gm226 | inactive: -0.799
CCUAUGAUUCCAAAAAGGUTT against A130022J15Rik | inactive: 0.673
GGAGUUUGUCAUCAUGGGCTT against Gpr4 | inactive: -1.64

Looked up one by one from the list above, four records:
Sequence | z-score
CCCUGUACGUUGUCUAUAATT against Olfml3 | inactive: 0.0378
GGCUUUUAGAUUUGUUUCATT against Hspa9a | inactive: -1.41
GGCUUGGGUGCAACUGAAATT against Mrps26 | inactive: -2.93
GCUACUCCUUAAUUGGCAATT against C530024P05Rik | inactive: -0.899

Continued:

Sequence | z-score
GGAACUGAUUGAAAACAUCTT against 1700013H19Rik | inactive: 1
GGCUGUCAUACUUUCAGGGTT against 4933439A12Rik | inactive: -0.076
CGUGUAUAAUGGCCAGCUUTT against Lamp1 | inactive: -1.6
GGAGCUGUUGAAAGAAUAUTT against Tnfrsf19l | inactive: -1.17
GGUCAGAGUACCUCAAAGGTT against 4930550L24Rik | inactive: 0.606
GGUGUUCGAGAAGCUGAAGTT against 1110020L19Rik | inactive: 1.66
GGUUCUUCAAUGGCAUUGGTT against Neil1 | inactive: -0.488
GGAACUGGAAGAGAAUGAGTT against Sdc4 | inactive: -0.414
CCUCAAGUCUAAUUCUCAUTT against AI413631 | inactive: 1.08
GGGAAGAAGAGAUUCUGAUTT against Cep2 | inactive: 1.11
GGAAUUGAAAUGUCAGAAGTT against Pxmp3 | inactive: -1.72
CCCAGGAGUUUAGAUGUAUTT against C1qtnf6 | inactive: -0.658
GGAGAAAAUCACUUCUCCATT against Smarca1 | inactive: 1.16
GGACCUGAAGUGUUUAGUCTT against Magoh | inactive: -2.7
GGCCAGACCAAAAUCAAGCTT against Shox2 | inactive: 0.175
GCACUGCCGGGAGUACUUATT against 5330438D12Rik | inactive: -0.0697
GGUUCACCUGACCUGUUAGTT against Itgad | inactive: -1.73
GGGAGCAAGAGCUCUUUUCTT against BC003332 | inactive: -0.401
GGAGGUGUGAUCCUAGGCUTT against Slc11a1 | inactive: 0.886
GGAUGGUACUUUUUUGGUCTT against Clnk | inactive: -0.196
CCCGGGAUACCACUUAUGUTT against 2700083B06Rik | inactive: -0.718
GGGAUUGUCAUAGUAACAUTT against Phyhip | inactive: -0.0103
GGGAUUACCAAAAAGGCAUTT against 2810413I22Rik | inactive: -0.671
CCCAGUAUCAGACUAUCAUTT against Inpp4a | inactive: -0.0277
GGUUUAUCUAUCCAGUUUUTT against Pigb | inactive: 1.55
